Results deposited as PubChem BioAssay AID602196 (INSERM, 2012)
Purpose: 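Knock-downs that protect lung cancer cells from cisplatin or sensitise them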. Cells: human A549 lung cancer cells. Reagents: siRNA pair against human genes. Duration: 48 h transfection before cisplatin; time from cisplatin to read-out not stated. Treatment: cisplatin at a dose killing half of control-siRNA cells; exact dose and duration not given. Read-out: 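Cisplatin cell death as a shift from the 50% death seen with control siRNA; siRNAs toxic or growth-blocking alone scored 0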. Scale: two-siRNA summed score (-2 to +2): higher = both siRNAs protect from cisplatin killing; -2 means both sensitise; mean protection from cisplatin (shift in death): higher = protection from cisplatin killing. Hit rule: 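Each siRNA scores 0 if harmful alone by LDH or WST-1, otherwise +1 if it reduces and -1 if it increases cisplatin killing; a gene is active when both siRNAs agree (sum +2 or -2)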. Calls: active = both siRNAs shift cisplatin killing the same way; inactive = no consistent shift, or siRNA harmful alone.
Shown is an unselected part of about 23,000 reagents tested. 455 of them (2%) count as active. 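Active includes both protection and sensitisation; some change values fall well beyond the stated -50 to +50 range.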 Entries without a mark were called inactive. Not all columns of the deposit are shown. Not stated in the record: the amount of reagent.

LOC91561
- two-siRNA summed score (-2 to +2): 0
- mean protection from cisplatin (shift in death) (%): 14.1

CCL22
- two-siRNA summed score (-2 to +2): 0
- mean protection from cisplatin (shift in death) (%): 7.2

DNAAF1
- two-siRNA summed score (-2 to +2): 0
- mean protection from cisplatin (shift in death) (%): 5.8

PLEKHG4
- two-siRNA summed score (-2 to +2): 0
- mean protection from cisplatin (shift in death) (%): 0.3

SUN1
- two-siRNA summed score (-2 to +2): -1
- mean protection from cisplatin (shift in death) (%): -8.9

LOC441378
- two-siRNA summed score (-2 to +2): 0
- mean protection from cisplatin (shift in death) (%): 0.5

LOC440484
- two-siRNA summed score (-2 to +2): 0
- mean protection from cisplatin (shift in death) (%): 6.1

CHGA
- two-siRNA summed score (-2 to +2): 0
- mean protection from cisplatin (shift in death) (%): -7.1

COMMD3
- two-siRNA summed score (-2 to +2): 1
- mean protection from cisplatin (shift in death) (%): 17.7

LOC283804
- two-siRNA summed score (-2 to +2): 0
- mean protection from cisplatin (shift in death) (%): 7.2

LOC392451
- two-siRNA summed score (-2 to +2): 0
- mean protection from cisplatin (shift in death) (%): 12.8

PLCG2
- two-siRNA summed score (-2 to +2): -1
- mean protection from cisplatin (shift in death) (%): -2

LOC440759
- two-siRNA summed score (-2 to +2): 1
- mean protection from cisplatin (shift in death) (%): 5.5

LOC440457
- two-siRNA summed score (-2 to +2): 0
- mean protection from cisplatin (shift in death) (%): 6.7

CPNE5
- two-siRNA summed score (-2 to +2): 0
- mean protection from cisplatin (shift in death) (%): 5.1

LOC400099 (retired record)
- two-siRNA summed score (-2 to +2): 0
- mean protection from cisplatin (shift in death) (%): 8

PRAMEF2
- two-siRNA summed score (-2 to +2): 0
- mean protection from cisplatin (shift in death) (%): 6.1

MRPS22
- two-siRNA summed score (-2 to +2): 0
- mean protection from cisplatin (shift in death) (%): 12.7

HCLS1
- two-siRNA summed score (-2 to +2): 1
- mean protection from cisplatin (shift in death) (%): 4.3

CCNB1IP1
- two-siRNA summed score (-2 to +2): 0
- mean protection from cisplatin (shift in death) (%): 7.5

PDK3
- two-siRNA summed score (-2 to +2): 0
- mean protection from cisplatin (shift in death) (%): 9.3

A stretch taken from the entries so far, for reference:
PRAMEF2
- two-siRNA summed score (-2 to +2): 0
- mean protection from cisplatin (shift in death) (%): 6.1

MRPS22
- two-siRNA summed score (-2 to +2): 0
- mean protection from cisplatin (shift in death) (%): 12.7

HCLS1
- two-siRNA summed score (-2 to +2): 1
- mean protection from cisplatin (shift in death) (%): 4.3
